These are yes or no findings as the source states them, for the method shown. In cells and extracts the contact can be indirect. A result given as binding can be weak or reduced; the word gives no strength. Sequences can lack the tags named with a protein.
Legend:
[1] = molecular target: T1, FLOT1-Flag (human (cDNA from HEK-293T cells)) (UniProt O75955); experiment: co-IP; tagged proteins co-expressed in transfected cells (HEK-293T in Fig. 4c, d), RIPA lysates, anti-Flag or anti-HA beads overnight at 4 °C, five washes; western blot
T1 sequence: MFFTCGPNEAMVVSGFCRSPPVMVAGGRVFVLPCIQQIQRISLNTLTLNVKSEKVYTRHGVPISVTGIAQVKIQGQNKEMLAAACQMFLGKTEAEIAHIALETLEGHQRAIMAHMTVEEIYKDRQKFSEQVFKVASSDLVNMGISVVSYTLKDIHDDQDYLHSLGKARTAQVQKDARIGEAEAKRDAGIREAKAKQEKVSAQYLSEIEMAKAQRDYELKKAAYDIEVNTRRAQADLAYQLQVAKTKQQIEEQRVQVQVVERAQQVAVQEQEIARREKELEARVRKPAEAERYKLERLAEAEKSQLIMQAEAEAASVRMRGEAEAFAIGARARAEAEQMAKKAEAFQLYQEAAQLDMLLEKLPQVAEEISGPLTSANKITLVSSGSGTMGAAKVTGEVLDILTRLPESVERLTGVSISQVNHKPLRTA

[2] = molecular target: T2, FLOT2-Flag (human (cDNA from HEK-293T cells)) (UniProt Q14254); experiment: as above
T2 sequence: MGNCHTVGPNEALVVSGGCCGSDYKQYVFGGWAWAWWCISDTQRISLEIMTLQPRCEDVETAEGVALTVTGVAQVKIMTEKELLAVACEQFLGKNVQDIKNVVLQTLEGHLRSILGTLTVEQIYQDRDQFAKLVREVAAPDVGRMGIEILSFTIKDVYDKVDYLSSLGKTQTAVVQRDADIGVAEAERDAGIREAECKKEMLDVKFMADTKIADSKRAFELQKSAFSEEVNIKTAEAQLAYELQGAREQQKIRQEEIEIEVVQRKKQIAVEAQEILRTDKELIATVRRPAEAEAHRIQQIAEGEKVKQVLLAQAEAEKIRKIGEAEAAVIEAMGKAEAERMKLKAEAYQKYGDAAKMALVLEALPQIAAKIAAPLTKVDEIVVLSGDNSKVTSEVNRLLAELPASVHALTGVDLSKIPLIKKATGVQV

binding [1]: binds | binding [2]: binds
Substance: IGF1R-HA (receptor)
